Results deposited as PubChem BioAssay AID504804 (Drosophila RNAi Screening Center, 2011)

Purpose: 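dsRNAs that improve Kc cell survival under doxorubicin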 (primary screen)
System: Drosophila Kc cells
Knock-down reagent: long dsRNA against Drosophila genes, 0.5 µg dsRNA per well
Duration: 96 h (48 h knock-down, then 48 h drug)
Conditions: doxorubicin 5 µg/ml for 48 h, added 48 h after dsRNA
Measured: 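Viability measured as cellular ATP by luminescence after 48 h knock-down then 48 h doxorubicin at 5 µg/ml; unnormalised plate counts for each replicate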
Scale: raw ATP luminescence: higher = more viable cells, protection from doxorubicin
Active means: 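Active when both duplicate wells lie at least 2 SD above the plate mean and protection is confirmed by rescreening and independent dsRNAs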
The screen tested about 19,000 reagents; below is a random part of those that have a named target and a result. Of all reagents, 47 (0.25%) are marked active. 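Signals are raw, not normalised; exact z-scores behind calls not deposited; actives needed confirmation, so some wells reaching 2 SD are inactive.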 A plus sign joins genes that one reagent is predicted to hit.

slp2 (sloppy paired 2) [DRSC00836] → raw ATP luminescence, replicate 1 = 24087; raw ATP luminescence, replicate 2 = 26400; activity call = inactive
eIF3m (eukaryotic translation initiation factor 3 subunit m) [DRSC07142] → raw ATP luminescence, replicate 1 = 57177; raw ATP luminescence, replicate 2 = 50937; activity call = inactive
spn-E (spindle E) [DRSC17064] → raw ATP luminescence, replicate 1 = 66990; raw ATP luminescence, replicate 2 = 59430; activity call = inactive
eEF5 (eukaryotic translation elongation factor 5) [DRSC04681] → raw ATP luminescence, replicate 1 = 32023; raw ATP luminescence, replicate 2 = 48423; activity call = inactive
MICAL-like [DRSC09829] → raw ATP luminescence, replicate 1 = 39370; raw ATP luminescence, replicate 2 = 38463; activity call = inactive
RpS7 (Ribosomal protein S7) [DRSC15394] → raw ATP luminescence, replicate 1 = 20740; raw ATP luminescence, replicate 2 = 26820; activity call = inactive
CG15729 (retired record) [DRSC19695] → raw ATP luminescence, replicate 1 = 3.01e5; raw ATP luminescence, replicate 2 = 2.70e5; activity call = inactive
Zip71B (Zinc/iron regulated transporter-related protein 71B) [DRSC09686] → raw ATP luminescence, replicate 1 = 81540; raw ATP luminescence, replicate 2 = 91357; activity call = inactive
Map60 (Microtubule-associated protein 60) [DRSC07464] → raw ATP luminescence, replicate 1 = 48637; raw ATP luminescence, replicate 2 = 49480; activity call = inactive
sn (singed) [DRSC18834] → raw ATP luminescence, replicate 1 = 27860; raw ATP luminescence, replicate 2 = 42300; activity call = inactive
CG12851 [DRSC04131] → raw ATP luminescence, replicate 1 = 31987; raw ATP luminescence, replicate 2 = 42927; activity call = inactive
CG31373 [DRSC16052] → raw ATP luminescence, replicate 1 = 51960; raw ATP luminescence, replicate 2 = 56177; activity call = inactive
CG8531 [DRSC07209] → raw ATP luminescence, replicate 1 = 72113; raw ATP luminescence, replicate 2 = 62867; activity call = inactive
CG8562 [DRSC10995] → raw ATP luminescence, replicate 1 = 1.00e5; raw ATP luminescence, replicate 2 = 1.00e5; activity call = inactive

An excerpt from the list above, as a working copy:
eEF5 (eukaryotic translation elongation factor 5) [DRSC04681] → raw ATP luminescence, replicate 1 = 32023; raw ATP luminescence, replicate 2 = 48423; activity call = inactive
MICAL-like [DRSC09829] → raw ATP luminescence, replicate 1 = 39370; raw ATP luminescence, replicate 2 = 38463; activity call = inactive
RpS7 (Ribosomal protein S7) [DRSC15394] → raw ATP luminescence, replicate 1 = 20740; raw ATP luminescence, replicate 2 = 26820; activity call = inactive
CG15729 (retired record) [DRSC19695] → raw ATP luminescence, replicate 1 = 3.01e5; raw ATP luminescence, replicate 2 = 2.70e5; activity call = inactive
Zip71B (Zinc/iron regulated transporter-related protein 71B) [DRSC09686] → raw ATP luminescence, replicate 1 = 81540; raw ATP luminescence, replicate 2 = 91357; activity call = inactive

Next entries:
Set [DRSC16861] → raw ATP luminescence, replicate 1 = 53937; raw ATP luminescence, replicate 2 = 25407; activity call = inactive
Pstk + Tim9b [DRSC20292] → raw ATP luminescence, replicate 1 = 3.45e5; raw ATP luminescence, replicate 2 = 2.73e5; activity call = inactive
CG3544 [DRSC00613] → raw ATP luminescence, replicate 1 = 1.01e5; raw ATP luminescence, replicate 2 = 70367; activity call = inactive
CG7296 [DRSC03042] → raw ATP luminescence, replicate 1 = 2.55e5; raw ATP luminescence, replicate 2 = 2.39e5; activity call = inactive
Tsen34 + Trl [DRSC10014] → raw ATP luminescence, replicate 1 = 87373; raw ATP luminescence, replicate 2 = 55690; activity call = inactive
CG42594 [DRSC18053] → raw ATP luminescence, replicate 1 = 11610; raw ATP luminescence, replicate 2 = 12230; activity call = inactive
CG42594 [DRSC18408] → raw ATP luminescence, replicate 1 = 56010; raw ATP luminescence, replicate 2 = 56170; activity call = inactive
CG18178 [DRSC10302] → raw ATP luminescence, replicate 1 = 49937; raw ATP luminescence, replicate 2 = 40763; activity call = inactive
eco (Establishment of cohesion) [DRSC11006] → raw ATP luminescence, replicate 1 = 40717; raw ATP luminescence, replicate 2 = 39780; activity call = inactive
CG5921 [DRSC17431] → raw ATP luminescence, replicate 1 = 1.95e5; raw ATP luminescence, replicate 2 = 2.28e5; activity call = inactive
CG5921 [DRSC18390] → raw ATP luminescence, replicate 1 = 50920; raw ATP luminescence, replicate 2 = 55890; activity call = inactive
CG13455 [DRSC10002] → raw ATP luminescence, replicate 1 = 66477; raw ATP luminescence, replicate 2 = 39663; activity call = inactive
AIMP3 (aaRS-interacting multifunctional protein 3) [DRSC04500] → raw ATP luminescence, replicate 1 = 46183; raw ATP luminescence, replicate 2 = 53347; activity call = inactive
CG31817 [DRSC01537] → raw ATP luminescence, replicate 1 = 2.87e5; raw ATP luminescence, replicate 2 = 2.87e5; activity call = inactive
CG31817 [DRSC01538] → raw ATP luminescence, replicate 1 = 2.97e5; raw ATP luminescence, replicate 2 = 2.86e5; activity call = inactive
